Experimental data as given in article PMC5673238.
Results are given in words; binding and its absence hold for the method and conditions named. In cells and extracts the contact can be indirect. Some entries that bind do so weakly or less than the wild type. For some of these results: Where a sequence is shown, tags or fusion partners need not be part of it.

Amino acid sequences for entries named in this document (tags omitted). A change or cut given only in a name is not applied to a line headed by its entry. Chains listed by the source or under a name are the forms on record and can include a tag or linker. Residues count along the entry.
UniProt Q13153, residues 70-117: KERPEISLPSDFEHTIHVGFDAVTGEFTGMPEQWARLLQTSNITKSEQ
UniProt P60953: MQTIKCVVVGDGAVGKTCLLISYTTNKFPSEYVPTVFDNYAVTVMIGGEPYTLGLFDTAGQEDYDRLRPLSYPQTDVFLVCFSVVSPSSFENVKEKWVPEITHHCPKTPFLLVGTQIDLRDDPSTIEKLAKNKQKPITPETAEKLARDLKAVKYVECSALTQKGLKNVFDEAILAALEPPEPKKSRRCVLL
VSVG-Cdc42 CA (QL) (P60953, form named): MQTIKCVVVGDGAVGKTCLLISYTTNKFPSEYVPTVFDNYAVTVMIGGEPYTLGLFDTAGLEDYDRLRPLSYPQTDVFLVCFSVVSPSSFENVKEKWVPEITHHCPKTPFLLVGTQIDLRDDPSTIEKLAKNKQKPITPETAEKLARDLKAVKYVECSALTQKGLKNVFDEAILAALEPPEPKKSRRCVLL
VSVG-Cdc42 DN (N17) (P60953, form named): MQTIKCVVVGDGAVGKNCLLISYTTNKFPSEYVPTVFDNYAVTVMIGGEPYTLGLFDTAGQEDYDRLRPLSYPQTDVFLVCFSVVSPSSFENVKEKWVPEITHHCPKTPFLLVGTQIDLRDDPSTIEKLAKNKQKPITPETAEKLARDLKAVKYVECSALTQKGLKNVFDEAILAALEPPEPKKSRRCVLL

Key:
[1] = biological target: GST-Pak1 binding domain (Pak1 70-117) (UniProt Q13153); experiment: pull-down; GST-PKB (GST-PBD) immobilised on glutathione agarose beads, incubated with HEK-293T lysate expressing vsvg-Cdc42 CA or DN; only the target purified
[2] = biological target: GST-Cdc42 (wild type) (UniProt P60953); experiment: pull-down; purified GST-Cdc42 incubated with GDP (inactive form), immobilised, incubated with lysate of HEK-293T cells overexpressing V5-CB isoforms; WB for V5; only the target purified
[3] = biological target: GST-Cdc42 (wild type) (UniProt P60953); experiment: pull-down; purified GST-Cdc42 incubated with γsGTP (active form), immobilised, incubated with lysate of HEK-293T cells overexpressing V5-CB isoforms; WB for V5; only the target purified

## VSVG-Cdc42 CA (QL) (from UniProt P60953 1-191)
[1]
  binding: binds

## VSVG-Cdc42 DN (N17) (from UniProt P60953 1-191)
[1]
  binding: no binding

B1: V5-CB1_(SH3+) (collybistin splice isoform CB1 with SH3 domain) (protein, UniProt Q9QX73 1-493)
chain: MQWIRGGSGMLITGDSIVSAEAVWDHVTMANRGVAFKAGDVIKVLDASNKDWWWGQIDDEEGWFPASFVRLWVNQEDGVEEGPSDVQNGHLDPNSDCLCLGRPLQNRDQMRANVINEIMSTERHYIKHLKDICEGYLKQCRKRRDMFSDEQLKVIFGNIEDIYRFQMGFVRDLEKQYNNDDPHLSEIGPCFLEHQDGFWIYSEYCNNHLDACMELSKLMKDSRYQHFFEACRLLQQMIDIAIDGFLLTPVQKICKYPLQLAELLKYTAQDHSDYRYVAAALAVMRNVTQQINERKRRLENIDKIAQWQASVLDWEGDDILDRSSELIYTGEMAWIYQPYGRNQQRVFFLFDHQMVLCKKDLIRRDILYYKGRIDMDKYEVIDIEDGRDDDFNVSMKNAFKLHNKETEEVHLFFAKKLEEKIRWLRAFREERKMVQEDEKIGFEISENQKRQAAMTVRKASKQKGRVGEEENQSLELKRACEVLQRLWSPGKKS
[2]
  binding: binds
[3]
  binding: binds
